Data taken from patent US20190201419A1, “COMPOUND AND METHOD FOR THE TREATMENT AND DIAGNOSIS OF NEURODEGENERATIVE CONDITIONS” (Swansea University, priority 2013, published 2019).
Marks after values point to notes of the source that are not given here.

Test: LC-ESI-MSn of oxysterols and cholestenoic acids in human CSF
Conditions: pool of fifteen different control subjects (‡)

Compound | Mean concentration ± SE in CSF
CC(CCC[C@@H](C)[C@H]1CC[C@H]2[C@@H]3[C@H](O)C=C4C[C@@H](O)CC[C@]4(C)[C@H]3CC[C@]12C)C(=O)O (stereo partly drawn) [3β,7α-diHCA, 3β,7α-dihydroxycholest-5-en-26-oic acid] | 5.884 ± 0.460‡ ng/mL
CC(CCC[C@@H](C)[C@H]1CC[C@H]2[C@@H]3[C@H](O)CC4=CC(=O)CC[C@]4(C)[C@H]3CC[C@]12C)C(=O)O (stereo partly drawn) [7αH,3O-CA, 7α-hydroxy-3-oxocholest-4-en-26-oic acid] | 19.476 ± 2.490‡ ng/mL
